Data as given in PubChem BioAssay AID504784 (Drosophila RNAi Screening Center, 2011)
Purpose: 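Search for regulators of lipid droplet storage in oleate-fed fly cells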 (primary screen). Cells: Drosophila Kc167 embryonic cells. Knock-down reagent: long dsRNA against Drosophila genes, about 250 ng dsRNA per well. Timing: 4 days. Treatment: cells fed 400 µM oleic acid bound to BSA. Read-out: 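Cells imaged and segmented; ratio of lipid droplet area to nuclear area, log-transformed, then normalised as a B-score over the screen; higher means more stored lipid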. Reading the numbers: droplet/nuclear area B-score: higher = more stored lipid (overstorage).
In all, the deposit lists about 17,000 reagents; shown is an unselected part of those with a known target gene and a result. 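Each column is one replicate's B-score; the combined score over replicates was not deposited, so single values may mislead.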 Reagents against one gene are numbered here. Names joined by + are all predicted targets of the reagent. Not all columns of the deposit are shown. Reagent sequences are not shown.

| gene | reagent no. | droplet/nuclear area B-score, replicate 1 | droplet/nuclear area B-score, replicate 2 |
| --- | --- | --- | --- |
| sals (sarcomere length short) | 1 | -2.44 | -6.44 |
| sals (sarcomere length short) | 2 | -0.38 | 0.377 |
| CG17147 | 1 | -1.06 | -0.958 |
| CG10738 | 1 | 0.0432 | -0.0692 |
| CG32718 | 1 | 1.12 | 0.31 |
| Etl1 | 1 | 1.43 | -0.0061 |
| CG15226 (retired record) | 1 | -0.0564 | -0.801 |
| CG15226 (retired record) | 2 | 0.603 | 0.808 |
| kra (krasavietz) | 1 | -0.111 | -0.482 |
| CG8778 | 1 | -0.382 | -1.14 |
| CG13321 | 1 | 3.31 | 1.79 |
| cic (capicua) | 1 | -0.406 | 0.994 |
| cic (capicua) | 2 | 0.935 | 0.74 |
| cic (capicua) | 3 | 1.04 | 2.18 |
| cic (capicua) | 4 | 1.44 | -0.51 |
| cic (capicua) | 5 | 1.62 | 0.331 |
| CG15468 | 1 | -0.482 | -1.71 |
| mtrm (matrimony) | 1 | 2.03 | 7.69 |
| mtrm (matrimony) | 2 | -0.347 | 0.241 |
| CG31882 | 1 | -0.95 | -1.55 |
| CG33308 | 1 | 2.17 | 2.1 |
| CG13713 | 1 | -3.11 | -1.67 |
| Ir76a (Ionotropic receptor 76a) | 1 | 0.378 | 0.0187 |
| BthD (BthD selenoprotein) | 1 | 1.08 | 1.02 |
| bocks (bocksbeutel) | 1 | -0.0739 | -0.0448 |
| RpS8 (Ribosomal protein S8) | 1 | 2.91 | 0.457 |
| CG33013 (retired record) | 1 | 0.0574 | -2.11 |
| Elo68beta (Elongase 68beta) | 1 | -0.0918 | -0.801 |
| betaTub97EF (beta-Tubulin at 97EF) | 1 | 0.205 | 0.668 |
| betaTub97EF (beta-Tubulin at 97EF) | 2 | -0.271 | 0.718 |
| betaTub97EF (beta-Tubulin at 97EF) | 3 | -0.0474 | -0.792 |
| DNAlig3 (DNA ligase 3) | 1 | -0.751 | 1.59 |
| ACXE (Adenylyl cyclase X E) | 1 | -0.725 | -0.0366 |
| Ir68b (Ionotropic receptor 68b) | 1 | 1.22 | 0.304 |
| phol (pleiohomeotic like) | 1 | 1.38 | 0.662 |
| CG8915 | 1 | 0.427 | 0.0415 |
| wkd (whacked) | 1 | -1.28 | -0.427 |
| p53 | 1 | 0.0396 | 0.215 |
| PPP4R2r (Protein phosphatase 4 regulatory subunit 2-related protein) | 1 | 0.376 | 0.66 |
| PPP4R2r (Protein phosphatase 4 regulatory subunit 2-related protein) | 2 | -1.05 | -0.0171 |
| Tapdelta (Translocon-associated protein delta) | 1 | 0.714 | -1.27 |
| Uba2 (Ubiquitin-like activating enzyme 2) | 1 | 0.62 | 1.1 |
| LysS (Lysozyme S) | 1 | 1.09 | 0.192 |
| abd-A (abdominal A) | 1 | -0.632 | -2.87 |
| abd-A (abdominal A) | 2 | -2.33 | 0.217 |
| abd-A (abdominal A) | 3 | 0.778 | -0.276 |
| Ddrgk1 (DDRGK domain containing 1) | 1 | 2.64 | 0.911 |
| Gnpat (Glyceronephosphate O-acyltransferase) | 1 | -0.00463 | 2.15 |
| kek2 (kekkon 2) | 1 | 2.47 | 1.54 |
| CG14646 | 1 | 0.436 | -1.19 |
| CG14646 | 2 | 0.835 | 0.0679 |
| CG17364 | 1 | -0.1 | 0.413 |
| CG17364 | 2 | -1.44 | 0.294 |
| CG17364 | 3 | 1.36 | -0.587 |
| CG17490 | 1 | -1.21 | -1.17 |
| Dph4 (Diphthamide biosynthesis 4) | 1 | -0.49 | -0.182 |
| CG6972 | 1 | -2.6 | -1.51 |
| CG6885 | 1 | 0.982 | 2.08 |
| lwr (lesswright) | 1 | -0.109 | 0.7 |
| CG3598 | 1 | 0.255 | -0.505 |
| Noc2 (Nucleolar complex protein 2) | 1 | 0.492 | -1.18 |
| Rfx | 1 | -0.523 | -0.0355 |
| Chrac-16 (Chromatin accessibility complex 16kD protein) | 1 | 2.91 | 2.34 |
| Prosbeta2R2 (Proteasome beta2 subunit-related 2) | 1 | -1.06 | 1.08 |
| blanks | 1 | -0.731 | -0.159 |
| CG9525 | 1 | 0.63 | -0.0468 |
| CG33491 (retired record) + CG33496 (retired record) + CG33487 (retired record) + 1 more | 1 | -0.829 | -1.25 |
| CG5151 | 1 | 4.64 | 6.71 |
| CG5151 | 2 | -0.006 | -0.956 |
| can (cannonball) | 1 | 0.305 | 2.24 |
| GramD1B (GRAM domain containing 1B) | 1 | -0.372 | 0.365 |
| GramD1B (GRAM domain containing 1B) | 2 | -1.42 | -0.265 |
| GCC88 (GRIP and coiled-coil domain containing 88 kDa) | 1 | -0.407 | -0.876 |
| CG11362 | 1 | -1 | -1.81 |
| CG11362 | 2 | -0.701 | 0.0447 |
| Fis1 (Fission, mitochondrial 1) | 1 | -0.213 | -0.861 |
| CG11882 | 1 | -0.668 | -0.753 |
| CG32507 | 1 | -2.66 | 2.05 |
| Atox1 (Antioxidant 1 copper chaperone) | 1 | -1.19 | -0.331 |
| PolD2 (DNA polymerase delta subunit 2) | 1 | -0.175 | 1.87 |
| Sec15 (Secretory 15) | 1 | 1.36 | -3.41 |
| Pdhb (Pyruvate dehydrogenase E1 beta subunit) | 1 | 1.82 | – |
| Cpr97Ea (Cuticular protein 97Ea) | 1 | -0.398 | 0.824 |
